We go through one sequence from publication PMC7218866.

For at least one entry, the source does not settle the construct or the ends of the probe.

The target in the data set is lysozyme (UniProt P00698). The experiment in a line: binding assay. The note with it: literature value, 25 mM trizma, 192 mM glycine, 5 mM potassium phosphate, pH 8.3; 5' thiol-C6 (SH-C6), immobilized on gold in SAM; 1x HBS, pH 7.4, redox reporter (ferricyanide or methylene blue) in solution; aptamer on gold electrode; temperature not stated; commercial protein; single-stranded DNA.

As usually defined, the Kd is the concentration at which binding is half-saturated. Higher therefore signals a looser complex. Regarding “AGCAGCACAGAGGTCAGATGGCAGGTAAGCAGGCGGCTCACAAAACCATTCGCATGCGGC [lysozyme aptamer (thiolated)]”, the equilibrium dissociation constant (Kd) was 3 nM.
